{"source": "paper PMC12040169", "about": "(PLOS Biology, 2025)", "note": "The other results are listed elsewhere or left out."}
{"system": "T1, CTL2-GFP (C. trachomatis L2/434/Bu, GFP-expressing)", "T1 construct": "L2/434/Bu, GFP-expressing", "parameters": "species or system HeLa; Intracellular C. trachomatis growth in HeLa cells, bulk GFP fluorescence relative to DMSO", "conditions": "bulk GFP, single well; 28.5 h, 10 µM; inhibitor", "units": {"% of control remaining": "%"}}
{"smiles": "NC(=O)c1c(NC(=O)c2nc3ccccc3s2)sc2c1CCCCC2", "note": "[CBK287566]", "% of control remaining": 127.921}
{"smiles": "Clc1cncc(OCCCCOc2ccccc2)n1", "note": "[CBK176018]", "% of control remaining": 87.605}
{"smiles": "CC(=O)Nc1ccc(S(=O)(=O)NCc2ccc3[nH]c4c(c3c2)CCCC4)cc1", "note": "[CBK267122]", "% of control remaining": 163.048}
{"smiles": "CCc1cc2cc3c(cc2nc1SCC(=O)Nc1nc(C)c(C)s1)OCO3", "note": "[CBK108548]", "% of control remaining": 100}
{"smiles": "COc1cccc(CNCc2ccccc2[N+](=O)[O-])c1OC", "note": "[CBK262198]", "% of control remaining": 89.6634}
{"smiles": "Cc1cc(C(=O)N2CCN(C(=O)c3ccco3)CC2)n[nH]1", "note": "[CBK144447]", "% of control remaining": 103.775}
{"smiles": "Cc1ccccc1-n1nc(C)c(CN2CCC(O)C(C)C2)c1C", "note": "(stereo not drawn) [CBK282739]", "% of control remaining": 134.663}
{"smiles": "Cc1cc(NS(=O)(=O)c2ccc(NC(=O)c3ccc(Br)cc3)cc2)no1", "note": "[CBK265371]", "% of control remaining": 116.892}
{"smiles": "COc1ccc(OCC(=O)Nc2cccc(-c3nnc4c5ccccc5c(C)nn34)c2)cc1", "note": "[CBK266743]", "% of control remaining": 127.559}
{"smiles": "Cc1nn(CCC(=O)NC(C)Cc2ccccn2)c(C)c1Cl", "note": "(stereo not drawn) [CBK281419]", "% of control remaining": 115.104}
{"smiles": "N#Cc1ccccc1C(=O)N(CCO)Cc1ccccc1", "note": "[CBK304844]", "% of control remaining": 114.464}
{"smiles": "Cc1ccc(N(Cc2ccco2)C(=O)c2cccc(S(=O)(=O)N3CCOCC3)c2)cc1", "note": "[CBK265857]", "% of control remaining": 120.242}
{"smiles": "CO[C@@]12CC[C@@H](OCC3CC3)C[C@@H]1N(Cc1c(C)cnn1C)CC2", "note": "[CBK307072]", "% of control remaining": 154.629}
{"smiles": "CC(=O)c1ccccc1-c1ccc(C(=O)NCCc2ccccn2)c(NCC2CC2)n1", "note": "[CBK076580]", "% of control remaining": 86.874}
{"smiles": "CCN1CCN(c2ncnc3c2cnn3-c2cccc(C)c2)CC1", "note": "[CBK265814]", "% of control remaining": 194.856}
{"smiles": "CCn1c(SCC(=O)Nc2ccc(C(=O)O)cc2)nnc1-c1ccccc1C", "note": "[CBK265927]", "% of control remaining": 97.8652}
{"smiles": "O=C(c1ccccn1)N1CCCC(n2cnc3cc(F)ccc32)C1", "note": "(stereo not drawn) [CBK284476]", "% of control remaining": 126.58}
{"smiles": "COc1ccc(F)cc1S(=O)(=O)Nc1cccc(C)n1", "note": "[CBK268842]", "% of control remaining": 128.815}
{"smiles": "O=C1CCCN1CCOc1nccnc1/C=C/c1ccccc1", "note": "[CBK106875]", "% of control remaining": 124.395}
{"smiles": "COC(=O)c1ccc(NC(=S)N2CCC(C(N)=O)CC2)cc1", "note": "[CBK267232]", "% of control remaining": 140.605}
{"smiles": "CSc1oc(-c2ccccc2)nc1C(N)=O", "note": "[CBK067744]", "% of control remaining": 111.404}
{"smiles": "Cc1ccc2[nH]c3c(c2c1)CCNC31CCN(C(=O)CC(C)CC(=O)O)CC1", "note": "(stereo not drawn) [CBK047196]", "% of control remaining": 169.878}
{"smiles": "O=C(O)c1snnc1-c1ccccc1", "note": "[CBK021545]", "% of control remaining": 139.357}
{"smiles": "COc1ccc(S(=O)(=O)Nc2ccc3oc(-c4ccccc4F)cc(=O)c3c2)cc1", "note": "[CBK300518]", "% of control remaining": 91.8193}
{"smiles": "CCOC(=O)C(NC(=O)CCn1ccc2ccncc21)C(C)C", "note": "(stereo not drawn) [CBK284719]", "% of control remaining": 130.545}
{"smiles": "CCC(c1cccnc1)N(C)C(=O)c1ccc(=O)n(C)c1", "note": "(stereo not drawn) [CBK306802]", "% of control remaining": 109.226}
{"smiles": "O=C(CC1c2ccccc2Oc2ccccc21)N1CCc2nc3ccccc3c(=O)n2CC1", "note": "[CBK286314]", "% of control remaining": 102.22}
{"smiles": "C=CCn1c(Cc2csc(NC(=O)CCc3nc4ccccc4c(=O)[nH]3)n2)n[nH]c1=S", "note": "[CBK297888]", "% of control remaining": 135.333}
{"smiles": "Cc1nc(C(=O)N2CCn3nc(C(O)c4ccccc4)cc3C2)c(C)s1", "note": "(stereo not drawn) [CBK307474]", "% of control remaining": 141.304}
{"smiles": "O=C(NCCCc1ccccn1)c1cc(C2CCCCC2)no1", "note": "[CBK283296]", "% of control remaining": 127.614}
{"smiles": "CN(Cc1cccnc1)C(=O)CSC(c1ccccc1)c1ccccc1", "note": "[CBK298284]", "% of control remaining": 136.528}
{"smiles": "O=C1Cc2ccccc2C2(CCN(C(=O)NCc3cccc(F)c3)CC2)N1", "note": "[CBK047288]", "% of control remaining": 102.388}
{"smiles": "c1cncc(COc2ccnc(N3CCCN(CCN4CCOCC4)CC3)n2)c1", "note": "[CBK084122]", "% of control remaining": 87.983}
{"smiles": "CC(=O)c1ccc(NC(=O)N2Cc3nc[nH]c3C[C@H]2c2nc(-c3ccc(C)cc3)no2)cc1", "note": "[CBK288959]", "% of control remaining": 102.748}
{"smiles": "CCOC(=O)c1cccnc1-c1cc2ccccc2o1", "note": "[CBK149237]", "% of control remaining": 137.972}
{"smiles": "Cc1ccc(S(=O)(=O)N2/C(=C\\COc3ccc(Cl)cc3Cl)C(N3CCOCC3)c3ccccc32)cc1", "note": "(stereo not drawn) [CBK262740]", "% of control remaining": 120.933}
{"smiles": "O=C(NC(c1ccccn1)c1cccs1)C1CCN(S(=O)(=O)c2ccc(C(F)(F)F)cc2)CC1", "note": "(stereo not drawn) [CBK060153]", "% of control remaining": 120.709}
{"smiles": "COc1cccc(OCCN2CCC3(C2)NCCc2c3[nH]c3cc(OC)ccc23)c1", "note": "(stereo not drawn) [CBK061794]", "% of control remaining": 110.935}
{"smiles": "CN1C(=O)c2cccc3c(S(=O)(=O)Nc4ccc(C(=O)O)c(O)c4)ccc1c23", "note": "[CBK299799]", "% of control remaining": 97.4772}
{"smiles": "Cc1cc(Cl)c(S(=O)(=O)N2CCN(c3ccccn3)CC2)cc1OCC(N)=O", "note": "[CBK266553]", "% of control remaining": 81.0748}
{"smiles": "Cc1occc1C(=O)Nc1cnn(CCCC(=O)O)c1", "note": "[CBK270116]", "% of control remaining": 109.081}
{"smiles": "C#CCN1N=C(c2ccc(OC)cc2)Cn2c(cc3sccc32)C1=O", "note": "[CBK284209]", "% of control remaining": 118.773}
{"smiles": "CC(Oc1ccccc1)C(=O)Nc1ccc(-c2csc(-c3ccccc3)n2)cc1", "note": "(stereo not drawn) [CBK268855]", "% of control remaining": 98.3421}
{"smiles": "O=C(NCc1ccc2c(c1)OCO2)c1cnc2sccn2c1=O", "note": "[CBK287446]", "% of control remaining": 128.7}
{"smiles": "Cn1cc(CNCCCN2CCc3ccccc32)c(-c2cccnc2)n1", "note": "[CBK306316]", "% of control remaining": 134.14}
{"smiles": "Cc1csc(CNCc2c(C(C)C)nn(C)c2N(C)C)n1", "note": "[CBK305089]", "% of control remaining": 115.048}
{"smiles": "Cc1oc(NC(=O)CN2CCN(c3ccccc3Cl)CC2)c(C#N)c1C", "note": "[CBK305908]", "% of control remaining": 153.257}
{"smiles": "CCOC(=O)Cn1c(-c2ccc(OC)cc2)cc2cccnc21", "note": "[CBK283320]", "% of control remaining": 129.593}
{"smiles": "COc1ccc(-n2ncc(CN(C)C)n2)cc1OC", "note": "[CBK112862]", "% of control remaining": 102.518}
{"smiles": "CCCC(CCC)NC(=O)c1ccc(-n2nc(C(=O)OCC)c(Cl)c2C)cc1", "note": "[CBK114323]", "% of control remaining": 94.9693}
{"smiles": "O=C(O)COc1ccc(NC(=O)c2ccc3c(c2)C(=O)N(CC2CCCO2)C3=O)cc1", "note": "(stereo not drawn) [CBK263719]", "% of control remaining": 133.076}
{"smiles": "COc1ccc(-c2cc(C(=O)N3CCN(C(C)=O)CC3)cnc2-c2ccccc2)cn1", "note": "[CBK036637]", "% of control remaining": 194.978}
{"smiles": "COc1ccc2c(c1)CCN=C2C[C@H]1CN(C(=O)NC(C)C)CC[C@H]1CC(=O)O", "note": "[CBK289156]", "% of control remaining": 108.399}
{"smiles": "Nc1nonc1-n1nnc(CN2CCCCC2)c1CN1CCCCC1", "note": "[CBK270636]", "% of control remaining": 155.782}
{"smiles": "Cc1[nH]c2ccc(F)cc2c1CC(=O)N(C)CCN(C)C", "note": "[CBK282726]", "% of control remaining": 153.874}
{"smiles": "CC(=O)Nc1ccc(CNc2nnc(C3CCCCC3)o2)cc1", "note": "[CBK306427]", "% of control remaining": 137.656}
{"smiles": "Cc1cc(/C=C2\\SC(=O)N(CC(=O)Nc3ccccc3F)C2=O)c(C)n1-c1cccnc1", "note": "[CBK264770]", "% of control remaining": 118.556}
{"smiles": "CC(=O)c1cc(C(=O)Nc2ccc(NC(=O)C(=O)O)cc2)oc1C", "note": "[CBK264011]", "% of control remaining": 127.699}
{"smiles": "CCN(CC)c1c(C)nc2ccc(C(=O)Nc3cc(-c4ccccc4)ccc3OC)cn12", "note": "[CBK145980]", "% of control remaining": 79.7433}
{"smiles": "CC(Cc1nc(-c2cnn(C)n2)cs1)n1cc(Cl)cn1", "note": "(stereo not drawn) [CBK304256]", "% of control remaining": 83.1017}
{"smiles": "O=C(O)c1ccc(Cl)c(S(=O)(=O)NCc2ccco2)c1", "note": "[CBK304575]", "% of control remaining": 123.035}
{"smiles": "CCOC(=O)C(CNC(=O)c1c(C)nn(C)c1C)Cc1ccccc1", "note": "(stereo not drawn) [CBK305276]", "% of control remaining": 147.046}
{"smiles": "COc1cc(/C=C(/C#N)c2ccc(C(=O)O)cc2)cc(Br)c1OCC(=O)O", "note": "[CBK268956]", "% of control remaining": 145.171}
{"smiles": "O=C(Oc1ccc(/C=N/c2ccc(O)c(-c3nc4ccccc4s3)c2)cc1)c1ccccc1Cl", "note": "[CBK261241]", "% of control remaining": 117.369}
{"smiles": "COc1cc(Cl)nnc1Cl", "note": "[CBK018956]", "% of control remaining": 117.039}
{"smiles": "Cc1cccc(/C(C#N)=C\\c2cn(CC(=O)O)c3ccccc23)c1", "note": "[CBK269457]", "% of control remaining": 92.2839}
{"smiles": "CCOC(=O)C(C(=O)OCC)(N1CCOCC1)N1CCOCC1", "note": "[CBK261176]", "% of control remaining": 116.208}
{"smiles": "CC(=O)N1CCc2cc(NC(=O)C3CC4C=CC3C43CC3)ccc21", "note": "(stereo not drawn) [CBK281472]", "% of control remaining": 94.0881}
{"smiles": "COc1cc(CNC(=O)c2cncc(-c3ccc(C(=O)N4CCOCC4)cc3)c2)cc(OC)c1OC", "note": "[CBK158632]", "% of control remaining": 102.76}
{"smiles": "O=C(Nc1cccc(C(F)(F)F)c1)N1CCC(n2c(=O)[nH]c3ccccc32)CC1", "note": "[CBK149845]", "% of control remaining": 87.1721}
{"smiles": "CC1CC1C(=O)N1CCC(c2nc3ccccc3cc2N)CC1", "note": "(stereo not drawn) [CBK285090]", "% of control remaining": 110.406}
{"smiles": "O=S(=O)(Nc1cccc2cc[nH]c12)c1ccc(Br)cc1C(F)(F)F", "note": "[CBK159519]", "% of control remaining": 69.5558}
{"smiles": "COc1cc(C(C)NC(=O)c2ccc(=O)[nH]n2)ccc1OC1CCCC1", "note": "(stereo not drawn) [CBK298335]", "% of control remaining": 121.187}
{"smiles": "CCCCc1ccc(S(=O)(=O)Nc2nccnc2-c2cccs2)cc1", "note": "[CBK050770]", "% of control remaining": 120.03}
{"smiles": "Cc1cnc(COC(=O)N2C[C@@H](C)O[C@@H](C)C2)cn1", "note": "[CBK200124]", "% of control remaining": 134.347}
{"smiles": "CC(C)CCNC(=O)N1CCNC(=O)C1", "note": "[CBK155874]", "% of control remaining": 119.506}
{"smiles": "CCNC(=O)NC[C@H]1C[C@@H]2CCN1C[C@@H]2c1cc(C2CCCC2)nn1C", "note": "[CBK288743]", "% of control remaining": 100.074}
{"smiles": "O=C(CSc1cnn[nH]1)Nc1cccc(C(F)(F)F)c1", "note": "[CBK269888]", "% of control remaining": 145.871}
